# Experimental data taken from the supplement of paper PMC8728848.
# Some of the results follow.
# B1: Clec39 (Caenorhabditis elegans) (protein)
# chain: MTSFYDNSSSSSKPVPLKTSRAQKIQILIFDNWKLILYGAISTLILVLAIMFSTLFFALPAANCDENSEPTKYYTTNAEITTTITTTNQKTTSTASSHLTTISSSATQIYSESSSSSTSQSTFTQSPPEISTTTIAPSDFSCQHGFTLVNNKCWKLVTSNQARPDADKICNGYGGATLFSIKSEQDNRAMIHFVKGQDIDFLWSGLLCSAGEPISCIWDIENGSTANYSNFADGFPNIVYGNCVYFITSGDEAGQWGNEQCGQVMNFVCELPATFQGKDGCKNNYEKSCYLRFDLNLTVPQAQNFCLEKCANLVSIHSANEVRFIMTIYDFIGEILIGALAPAQDFIYWLDGTPANYNNLKFFYNSTCVHMTVAPGMQNVGKWFTRFCTETGKFLCKRSIKNSCT
# Key:
# Assay in all cases: glycan array binding signal (z-score within array); higher = stronger binding
# Conditions in all cases: glycan notation: IUPAC condensed, linker removed
# Gal3S(b1-4)Glc = biological target: Gal3S(b1-4)Glc
# Procedure, shortened: (§1)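 Glycan array binding is given as a within-array Z-score, which can be read as non-binding when negative. The arrays, 3228 of them, came from the Consortium for Functional Glycomics database and were retained only where the protein sequence was available. Z-scores were averaged across arrays of the same protein sequence at different concentrations or buffers and across linkers.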
# Gal3S(b1-4)Glc6S = biological target: Gal3S(b1-4)Glc6S
# Procedure, shortened: as §1
# Gal3S(b1-4)GlcNAc = biological target: Gal3S(b1-4)GlcNAc
# Procedure, shortened: as §1
# [1] = biological target: Gal3S(b1-4)[Fuc(a1-3)]Glc6S
# Procedure, shortened: as §1
# [2] = biological target: Gal3S(b1-4)[Fuc(a1-3)]GlcNAc
# Procedure, shortened: as §1
# [3] = biological target: Gal3S(b1-4)[Fuc(a1-3)]GlcNAc6S
# Procedure, shortened: as §1
# Gal3S4S(b1-4)GlcNAc = biological target: Gal3S4S(b1-4)GlcNAc
# Procedure, shortened: as §1
# Gal3S6S(b1-4)GlcNAc = biological target: Gal3S6S(b1-4)GlcNAc
# Procedure, shortened: as §1
# Gal3S6S(b1-4)GlcNAc6S = biological target: Gal3S6S(b1-4)GlcNAc6S
# Procedure, shortened: as §1
# Gal4S(b1-4)GlcNAc = biological target: Gal4S(b1-4)GlcNAc
# Procedure, shortened: as §1
# Gal4S6S(b1-4)GlcNAc = biological target: Gal4S6S(b1-4)GlcNAc
# Procedure, shortened: as §1
# Gal6P(b1-4)GlcNAc = biological target: Gal6P(b1-4)GlcNAc
# Procedure, shortened: as §1
# Gal6S(b1-3)GlcNAc = biological target: Gal6S(b1-3)GlcNAc
# Procedure, shortened: as §1
# Gal6S(b1-3)GlcNAc6S = biological target: Gal6S(b1-3)GlcNAc6S
# Procedure, shortened: as §1
# Gal6S(b1-4)Glc = biological target: Gal6S(b1-4)Glc
# Procedure, shortened: as §1
# Gal6S(b1-4)Glc6S = biological target: Gal6S(b1-4)Glc6S
# Procedure, shortened: as §1
# Gal6S(b1-4)GlcNAc = biological target: Gal6S(b1-4)GlcNAc
# Procedure, shortened: as §1
# Gal6S(b1-4)GlcNAc6S = biological target: Gal6S(b1-4)GlcNAc6S
# Procedure, shortened: as §1
# GalNAc(a1-3)Gal = biological target: GalNAc(a1-3)Gal
# Procedure, shortened: as §1
# GalNAc(a1-3)GalNAc = biological target: GalNAc(a1-3)GalNAc
# Procedure, shortened: as §1
# [4] = biological target: GalNAc(a1-3)GalNAc(b1-3)Gal(a1-4)Gal(b1-4)Glc
# Procedure, shortened: as §1
# [5] = biological target: GalNAc(a1-3)GalNAc(b1-3)Gal(a1-4)Gal(b1-4)GlcNAc
# Procedure, shortened: as §1
# GalNAc(b1-3)Gal = biological target: GalNAc(b1-3)Gal
# Procedure, shortened: as §1
# [6] = biological target: GalNAc(b1-3)Gal(a1-4)Gal(b1-4)GlcNAc
# Procedure, shortened: as §1
# [7] = biological target: GalNAc(b1-3)Gal(a1-4)Gal(b1-4)GlcNAc(b1-3)Gal(b1-4)Glc
# Procedure, shortened: as §1
# [8] = biological target: GalNAc(b1-3)Gal(a1-6)Gal(b1-4)Glc
# Procedure, shortened: as §1
# GalNAc(b1-3)GalNAc = biological target: GalNAc(b1-3)GalNAc
# Procedure, shortened: as §1
# GalNAc(b1-3)GlcNAc = biological target: GalNAc(b1-3)GlcNAc
# Procedure, shortened: as §1
# GalNAc(b1-4)Gal(b1-4)Glc = biological target: GalNAc(b1-4)Gal(b1-4)Glc
# Procedure, shortened: as §1
# GalNAc(b1-4)GlcNAc = biological target: GalNAc(b1-4)GlcNAc
# Procedure, shortened: as §1
# [9] = biological target: GalNAc(b1-4)GlcNAc(b1-2)Man
# Procedure, shortened: as §1
# [10] = biological target: GalNAc(b1-4)GlcNAc(b1-2)Man(a1-3)[GalNAc(b1-4)GlcNAc(b1-2)Man(a1-6)]Man(b1-4)GlcNAc(b1-4)GlcNAc
# Procedure, shortened: as §1
# [11] = biological target: GalNAc(b1-4)GlcNAc(b1-3)GalNAc(b1-4)GlcNAc
# Procedure, shortened: as §1
# GalNAc(b1-4)GlcNAc6S = biological target: GalNAc(b1-4)GlcNAc6S
# Procedure, shortened: as §1
# GalNAc(b1-6)GalNAc = biological target: GalNAc(b1-6)GalNAc
# Procedure, shortened: as §1
# GalNAc3S(b1-4)GlcNAc = biological target: GalNAc3S(b1-4)GlcNAc
# Procedure, shortened: as §1
# GalNAc3S(b1-4)GlcNAc3S = biological target: GalNAc3S(b1-4)GlcNAc3S
# Procedure, shortened: as §1
# [12] = biological target: GalNAc3S(b1-4)[Fuc(a1-3)]GlcNAc
# Procedure, shortened: as §1
# GalNAc4S6S(b1-4)GlcNAc = biological target: GalNAc4S6S(b1-4)GlcNAc
# Procedure, shortened: as §1
# GalNAc6S(b1-4)GlcNAc = biological target: GalNAc6S(b1-4)GlcNAc
# Procedure, shortened: as §1
# Glc(a1-4)Glc = biological target: Glc(a1-4)Glc
# Procedure, shortened: as §1
# [13] = biological target: Glc(a1-4)Glc(a1-4)Glc(a1-4)Glc
# Procedure, shortened: as §1
# Glc(a1-6)Glc(a1-6)Glc = biological target: Glc(a1-6)Glc(a1-6)Glc
# Procedure, shortened: as §1
# [14] = biological target: Glc(a1-6)Glc(a1-6)Glc(a1-6)Glc
# Procedure, shortened: as §1
# Glc(b1-4)Glc = biological target: Glc(b1-4)Glc
# Procedure, shortened: as §1
binder,measurement,setting,value
B1,glycan array binding signal (z-score),Gal3S(b1-4)Glc,0.229
same,glycan array binding signal (z-score),Gal3S(b1-4)Glc6S,0.293
same,glycan array binding signal (z-score),Gal3S(b1-4)GlcNAc,-0.993
same,glycan array binding signal (z-score),[1],0.923
same,glycan array binding signal (z-score),[2],0.377
same,glycan array binding signal (z-score),[3],0.809
same,glycan array binding signal (z-score),Gal3S4S(b1-4)GlcNAc,-0.572
same,glycan array binding signal (z-score),Gal3S6S(b1-4)GlcNAc,0.328
same,glycan array binding signal (z-score),Gal3S6S(b1-4)GlcNAc6S,0.426
same,glycan array binding signal (z-score),Gal4S(b1-4)GlcNAc,-1.02
same,glycan array binding signal (z-score),Gal4S6S(b1-4)GlcNAc,-0.462
same,glycan array binding signal (z-score),Gal6P(b1-4)GlcNAc,-0.018
same,glycan array binding signal (z-score),Gal6S(b1-3)GlcNAc,0.971
same,glycan array binding signal (z-score),Gal6S(b1-3)GlcNAc6S,0.39
same,glycan array binding signal (z-score),Gal6S(b1-4)Glc,-0.342
same,glycan array binding signal (z-score),Gal6S(b1-4)Glc6S,2
same,glycan array binding signal (z-score),Gal6S(b1-4)GlcNAc,1.33
same,glycan array binding signal (z-score),Gal6S(b1-4)GlcNAc6S,1.23
same,glycan array binding signal (z-score),GalNAc(a1-3)Gal,-0.675
same,glycan array binding signal (z-score),GalNAc(a1-3)GalNAc,-1.26
same,glycan array binding signal (z-score),[4],0.099
same,glycan array binding signal (z-score),[5],-0.848
same,glycan array binding signal (z-score),GalNAc(b1-3)Gal,0.618
same,glycan array binding signal (z-score),[6],1.49
same,glycan array binding signal (z-score),[7],-0.359
same,glycan array binding signal (z-score),[8],-1.35
same,glycan array binding signal (z-score),GalNAc(b1-3)GalNAc,-0.16
same,glycan array binding signal (z-score),GalNAc(b1-3)GlcNAc,-0.927
same,glycan array binding signal (z-score),GalNAc(b1-4)Gal(b1-4)Glc,0.409
same,glycan array binding signal (z-score),GalNAc(b1-4)GlcNAc,0.285
same,glycan array binding signal (z-score),[9],-0.862
same,glycan array binding signal (z-score),[10],0.422
same,glycan array binding signal (z-score),[11],-0.798
same,glycan array binding signal (z-score),GalNAc(b1-4)GlcNAc6S,-0.307
same,glycan array binding signal (z-score),GalNAc(b1-6)GalNAc,-0.849
same,glycan array binding signal (z-score),GalNAc3S(b1-4)GlcNAc,-0.828
same,glycan array binding signal (z-score),GalNAc3S(b1-4)GlcNAc3S,0.629
same,glycan array binding signal (z-score),[12],1.07
same,glycan array binding signal (z-score),GalNAc4S6S(b1-4)GlcNAc,0.327
same,glycan array binding signal (z-score),GalNAc6S(b1-4)GlcNAc,-0.478
same,glycan array binding signal (z-score),Glc(a1-4)Glc,0.424
same,glycan array binding signal (z-score),[13],-0.369
same,glycan array binding signal (z-score),Glc(a1-6)Glc(a1-6)Glc,-0.01
same,glycan array binding signal (z-score),[14],0.296
same,glycan array binding signal (z-score),Glc(b1-4)Glc,-0.573

# An excerpt of these results, as tab-separated lines:
binder	measurement	setting	value
B1	glycan array binding signal (z-score)	Gal3S(b1-4)Glc	0.229
same	glycan array binding signal (z-score)	[11]	-0.798
